# Reference: the supplement of paper PMC12067093, “Discovery and optimisation of a covalent ligand for TRIM25 and its application to targeted protein ubiquitination” (Chemical Science, 2025)
# Some of the results follow.
# Compound: Cc1cc(ccc1-c1ccccc1)C(=O)N1CCCN(CC1)C(=O)CCl [compound 10]
# Experiment: probe-labelled cysteine peptide fold change vs DMSO (competition) (log2 fold change); higher = less target engagement (more negative = stronger competition)
# Conditions: 10 µM; THP-1; incubation time: 4 h
# 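Note: competitive profiling in live THP-1 cells: cysteine peptides tagged with an iodoacetamide desthiobiotin (IA-DTB) probe, intensity after compound treatment relative to DMSO-treated cells.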
row,Target,probe-labelled cysteine peptide fold change
1,IARS_P41252_336_EEEGTGVVHQAPYFGAEDYRVCMDFNIIR (UniProt P41252),-0.214
2,ILVBL_A1L0T0_568_EQVPSLGSNVACGLAYTDYHK (UniProt A1L0T0),-0.0103
3,IDH2_P48735_418_DLAGCIHGLSNVK (UniProt P48735),0.0476
4,INF2_Q27J81_101_ISDALLQLTCVSCVR (UniProt Q27J81),0.0498
5,IGFBP7_Q16270_71_GEGEPCGGGGAGR (UniProt Q16270),-0.495
6,HUWE1_Q7Z6Z7_3658_RAQCETLSPDGLPEEQPQTTK (UniProt Q7Z6Z7),-0.387
7,IGF2R_P11717_1942_LWCSTTADYDRDHEWGFCR (UniProt P11717),-0.0758
8,IFT140_Q96RY7_155_HLTHCIFR (UniProt Q96RY7),0.229
9,IFT88_Q13099_162_EVNELVEESCIANSCGDLK (UniProt Q13099),-0.279
10,HYAL3_O43820_220_CHAATLAR (UniProt O43820),-0.0639
11,HUWE1_Q7Z6Z7_1879_VLGPAACR (UniProt Q7Z6Z7),-0.181
12,IBTK_Q9P2D0_615_DEDSAGCHLFVVEK (UniProt Q9P2D0),0.263
13,IGF2R_P11717_228_ACPPGTAACLVR (UniProt P11717),-0.0106
14,HUWE1_Q7Z6Z7_3333_HASGGSTVHIHPQAAPVVCR (UniProt Q7Z6Z7),0.293
15,IL1RAP_Q9NPH3_24_CDDWGLDTMR (UniProt Q9NPH3),-0.27
16,IFRD2_Q12894_147_EYVDCLTDK (UniProt Q12894),0.0555
17,INPP1_P49441_97_LCSTEEETAELLSK (UniProt P49441),0.0651
18,IGF2R_P11717_823_KYYINVCRPLNPVPGCNR (UniProt P11717),-0.0593
19,IKZF1_Q13422_175+178_CHLCNYACR (UniProt Q13422),-0.0534

row,Target,probe-labelled cysteine peptide fold change
1,HYOU1_Q9Y4L1_352_VEFEELCADLFER (UniProt Q9Y4L1),0.00354
2,ILK_Q13418_42_LWLDNTENDLNQGDDHGFSPLHWACR (UniProt Q13418),-0.0585
3,IL18_Q14116_74_NLNDQVLFIDQGNRPLFEDMTDSDCRDNAPR (UniProt Q14116),-0.0741
4,IFT27_Q9BW83_8_CILAGDPAVGK (UniProt Q9BW83),-0.0513
5,HUWE1_Q7Z6Z7_2666_VLDAESMHDCVSVVK (UniProt Q7Z6Z7),-0.122
6,IL6R_P08887_277_DLQHHCVIHDAWSGLR (UniProt P08887),-0.201
7,IGF2R_P11717_1516_SNEHDDCQVTNPSTGHLFDLSSLSGR (UniProt P11717),-0.253
8,IGF2R_P11717_1839_TYSVGVCTFAVGPEQGGCK (UniProt P11717),-0.00554
9,IMPACT_Q9P2X3_137+145_KKTEEEDVECEDDLILACQPESSLK (UniProt Q9P2X3),-0.512
10,IL4I1_Q96RQ9_252_AHSCLSDR (UniProt Q96RQ9),0.145
11,HUWE1_Q7Z6Z7_29_VCNDEQLLLELQQIK (UniProt Q7Z6Z7),-0.145
12,IGF2R_P11717_830_YASACQMK (UniProt P11717),-0.0935
13,HUWE1_Q7Z6Z7_2721_DQSAQCTASK (UniProt Q7Z6Z7),-0.0419
14,IMMT_Q16891_697_LLSYASYCIEHGDLELAAK (UniProt Q16891),0.336
15,IFT122_Q9HBG6_14_AEHCINDIAFKPDGTQLILAAGSR (UniProt Q9HBG6),0.0363
16,HUWE1_Q7Z6Z7_790_FVESILSNNTTDDHCQEFVNQK (UniProt Q7Z6Z7),-0.182
17,IKBKB_O14920_524_EMEQAVELCGR (UniProt O14920),0.0407
18,IFI35_P80217_74_IHCPLLAGSALITFDDPK (UniProt P80217),-0.0276
19,HYOU1_Q9Y4L1_352_VTRVEFEELCADLFER (UniProt Q9Y4L1),0.184

# Same assay, conditions: 50 µM; THP-1; incubation time: 4 h
row,Target,probe-labelled cysteine peptide fold change
1,IARS_P41252_336_EEEGTGVVHQAPYFGAEDYRVCMDFNIIR (UniProt P41252),-0.192
2,ILVBL_A1L0T0_568_EQVPSLGSNVACGLAYTDYHK (UniProt A1L0T0),0.303
3,IDH2_P48735_418_DLAGCIHGLSNVK (UniProt P48735),0.056
4,INF2_Q27J81_101_ISDALLQLTCVSCVR (UniProt Q27J81),-0.052
5,IGFBP7_Q16270_71_GEGEPCGGGGAGR (UniProt Q16270),-0.954
6,HUWE1_Q7Z6Z7_3658_RAQCETLSPDGLPEEQPQTTK (UniProt Q7Z6Z7),-0.635
7,IGF2R_P11717_1942_LWCSTTADYDRDHEWGFCR (UniProt P11717),0.0172
8,IFT140_Q96RY7_155_HLTHCIFR (UniProt Q96RY7),0.211
9,IFT88_Q13099_162_EVNELVEESCIANSCGDLK (UniProt Q13099),-0.316
10,HYAL3_O43820_220_CHAATLAR (UniProt O43820),-0.0817
11,HUWE1_Q7Z6Z7_1879_VLGPAACR (UniProt Q7Z6Z7),-0.248
12,IBTK_Q9P2D0_615_DEDSAGCHLFVVEK (UniProt Q9P2D0),0.231
13,IGF2R_P11717_228_ACPPGTAACLVR (UniProt P11717),0.104
14,HUWE1_Q7Z6Z7_3333_HASGGSTVHIHPQAAPVVCR (UniProt Q7Z6Z7),0.0771
15,IL1RAP_Q9NPH3_24_CDDWGLDTMR (UniProt Q9NPH3),-0.186
16,IFRD2_Q12894_147_EYVDCLTDK (UniProt Q12894),0.0894
17,INPP1_P49441_97_LCSTEEETAELLSK (UniProt P49441),-0.0128
18,IGF2R_P11717_823_KYYINVCRPLNPVPGCNR (UniProt P11717),-0.293
19,IKZF1_Q13422_175+178_CHLCNYACR (UniProt Q13422),-0.482

row,Target,probe-labelled cysteine peptide fold change
1,HYOU1_Q9Y4L1_352_VEFEELCADLFER (UniProt Q9Y4L1),0.233
2,ILK_Q13418_42_LWLDNTENDLNQGDDHGFSPLHWACR (UniProt Q13418),-0.0498
3,IL18_Q14116_74_NLNDQVLFIDQGNRPLFEDMTDSDCRDNAPR (UniProt Q14116),-0.334
4,IFT27_Q9BW83_8_CILAGDPAVGK (UniProt Q9BW83),-0.177
5,HUWE1_Q7Z6Z7_2666_VLDAESMHDCVSVVK (UniProt Q7Z6Z7),0.0675
6,IL6R_P08887_277_DLQHHCVIHDAWSGLR (UniProt P08887),-0.668
7,IGF2R_P11717_1516_SNEHDDCQVTNPSTGHLFDLSSLSGR (UniProt P11717),-0.076
8,IGF2R_P11717_1839_TYSVGVCTFAVGPEQGGCK (UniProt P11717),0.112
9,IMPACT_Q9P2X3_137+145_KKTEEEDVECEDDLILACQPESSLK (UniProt Q9P2X3),-0.316
10,IL4I1_Q96RQ9_252_AHSCLSDR (UniProt Q96RQ9),0.314
11,HUWE1_Q7Z6Z7_29_VCNDEQLLLELQQIK (UniProt Q7Z6Z7),0.108
12,IGF2R_P11717_830_YASACQMK (UniProt P11717),-0.183
13,HUWE1_Q7Z6Z7_2721_DQSAQCTASK (UniProt Q7Z6Z7),-0.255
14,IMMT_Q16891_697_LLSYASYCIEHGDLELAAK (UniProt Q16891),0.332
15,IFT122_Q9HBG6_14_AEHCINDIAFKPDGTQLILAAGSR (UniProt Q9HBG6),-0.131
16,HUWE1_Q7Z6Z7_790_FVESILSNNTTDDHCQEFVNQK (UniProt Q7Z6Z7),-0.286
17,IKBKB_O14920_524_EMEQAVELCGR (UniProt O14920),0.0999
18,IFI35_P80217_74_IHCPLLAGSALITFDDPK (UniProt P80217),-0.193
19,HYOU1_Q9Y4L1_352_VTRVEFEELCADLFER (UniProt Q9Y4L1),0.123
